Data reported in PMC10272880.

Biological target: T1, LldR (Escherichia coli K-12 W3110 type-A) (UniProt P0ACL7)
T1 sequence (looked up): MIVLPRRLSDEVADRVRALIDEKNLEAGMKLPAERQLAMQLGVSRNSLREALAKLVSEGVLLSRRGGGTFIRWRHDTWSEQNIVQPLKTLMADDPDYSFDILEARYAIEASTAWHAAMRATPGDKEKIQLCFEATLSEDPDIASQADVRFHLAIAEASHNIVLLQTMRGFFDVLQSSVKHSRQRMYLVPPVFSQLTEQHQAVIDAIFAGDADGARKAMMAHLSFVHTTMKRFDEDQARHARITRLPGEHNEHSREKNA
Assay: EMSA
Details: EMSA: binding buffer (composition given for gSELEX: 10 mM Tris-HCl pH 7.8 at 4 °C, 3 mM Mg acetate, 150 mM NaCl, 1.25 mg/ml BSA), 37 °C 30 min, then effector 30 min, recombinant protein, residues 1-258, protein details: C-terminal His, label: none (GelRed stain), probe letters rebuilt from the primers and the genome

[1] = 20-320 pmol LldR, 0.5 pmol probe

**Q.** Does “AACGAAAAGCCCCTTACTTGTAGGAGGTCTGACCACTTGTGATGATATGGTTGTAGTGGATGTAAAAACATTTAGCAATATGTTTACAATATAATTACAACAAAGCTCACATTGTTGCTGTTTTTATCCGCACTTCAGGTCAAAAAGTCCTGGTCATAGCACCTGCCCGTACTTCTCGCTTTTGGCGGTATCCGGTACACTGCATTTTGTCTATTACATTTATGCTGAAGGATATCCTCATGTACCAGGATCTTATTCGTAACGAACTGAACGAAGCGGCGGAAACGCTGGCTAACTTTTTAAAAGATGACGCCAATATTCACGCCATTCAGCGCGCGGCGGTCCTGTTAGCAGACAGCTTTA (double strand) [fadE/gmhA probe]” bind [1]?
**A.** binds

**Q.** Does “AAGTTAAATATAACTTTTACTGGAAATAAGATCAGCCATTTTTTTATAAACATAAGCTATACGCTGTGCGAAAATATATTCGTGCTGCATTTACTTATTATCAATTAACTGTTATGCAAAACTACTTTGTGGATAAATTTTGGTCCTACCAAATCTGGCAGTTTTTGCGCTAAGAAACAGTCTGGCATCATTTCATTAGTATACTGAAATTGAAATAATCGCAGTATGAAATATAAGGGATAATCATGACTCATGTCTGCTCGGTGATCCTCATTCGTCGTTCATTCGATATTTATCATGAACAGCAAAAAATATCGCTGCATAACGAGAGTATTCT (double strand) [gadW/gadY probe]” bind [1]?
**A.** binds

**Q.** Does “AGAAACATCCATAAATTAATCATAGCTCAACCTCCTGCCGCGCTAAAAAACCTGTAACTTCAGTCACTTTAATAGTAAGACAATCCTTAACCTCTGGCAATTTTTGCTAAGCATCAATGAAAACAGCATGTTAAATGCAAGACTGTTGTGTACGGAAAAATATTTACTTTGCACGATTAATAATCAGTAGCTGAAAGCAGTCAGCGAGTGATAAAGTACAGATACCGCATTCATGCTCCTCGTGGTTATGTCCTGACTAGTCTTTACACTCTTTACAGGAACCATTGTCGTACATGATGGCCCAACCAATTGAGTGTACCGCTGTCGACATGGAATCTTCTGCGATACAACAATTCGTATCTACAGAAGGTAACT (double strand) [yfdY/lpxP probe]” bind [1]?
**A.** binds

**Q.** What does the source list for “CAGGAGATGACTGGGTTTTCAAAGACCGCGTTTTAAGAACACAGTATCTACAGGGTGATTCTGCACATTCCTATAGGCCGAGTAAGGTGTTCACGCCGCATCCGGCAAGATAAGGCGCTCTGGATCAACAACCTAAGGGCAATTCTCTGATGAGGATTGCCCTTTTCTTTACCAGACATCTCCCCCCACAAGAATTGGCCCTACCAATTCTTCGCTTATCTGACCTCTGGTTCACAATTTCCCAATTAAAACTCACATCAATGTTGCCAATACATAACATTTAGTTAACCATTCATTGTCATTATCCCTACACAACACAATTGGCAGTGCCACTTTTACACAACGTGTGACAAGGAGATGAGCAACAGACTCATTACACGATGTGCGTGGACTCCAGGAGACCTGCA (double strand) [lldP promoter probe]”?
**A.** binding result (20-320 pmol LldR, 0.5 pmol probe, highest binding of all probes): binds; binding result (D-lactate 5 mM (enhanced, no significant change below 1 mM)): binds; binding result (D-lactate >5 mM (10-50 mM tested, dissociation)): binds more weakly; binding result (L-lactate 5 mM (enhanced, no significant change below 1 mM)): binds; binding result (L-lactate >5 mM (10-50 mM tested, dissociation)): binds more weakly; binding result (acetate 5 mM (effect similar to lactate)): binds; binding result (acetate >5 mM (10-50 mM tested, effect similar to lactate)): binds more weakly; binding result (glycolate 0.1-50 mM (slight effect)): binds; binding result (pyruvate 0.1-50 mM (no effect)): binds

**Q.** Does “TTGATTTCCTCTGTATGTGCACCCAAGGTGCCAGATAAACGTTGTGGATATTTTACGCTTCCGGAAAGTGCTGCTCCAGTTGTTAATTCTGCAAAATCGGATAAGTGACCGAAATCACACTTAAAAATGATCTAAAACAAAATTCACCCGAATCCATGAGTGCGCCACCTCCAAATTTTGCCAGCTGGATCGCGTTTCTTAGATCATATTTGAAAAAAGATAGAAACATACTTGCAACATTCCAGCTGGTCCGACCTATACTCTCGCCACTGGTCTGATTTCTAAGATGTACCTCAGACCCTACACTTCGCGCTCCTGTTACAGCACGTAACATAGTTTGTATAAAAATAAATCATTGAGGTTATGGTC (double strand) [yfcZ/fadL probe]” bind [1]?
**A.** binds

**Q.** Does “TTTTGCTGATGAATAAGTTCCCAGGGGATTTGCCGAAATTTCGCCTGGCGCTGACGATGATTATCGCGCACCAGCGCCTGCGTGATGCACCGATCCCGGTTAACGAGGATTTATCGGCGTTTCACCGACAAATGCGCCGCACAGCAGACCATGTGATATCTGCCCGTAGCGATGATAAACGTCGTCGGTACTTTGGCCAGTTGCTGGAAGAACTGGAAATCTACCAGGAAAAGCTACGCATCTGGCAAGCGCCACCGCAGGTGACGGAACCGGTAAATCGGCTGGCGGGGATGCTCCATAAGTATCAACATGCGTTGACCGATAGTTAAGTCAAAACCGACGCCAAAAGCGTCGGTTTTTTCATGGCTATACTTAGCGATGCACGGCAGAACTCGCCGCGAAACGTGACGGTGGCAACAG (double strand) [yhcO probe]” bind [1]?
**A.** binds

Tags and fusion partners may be left off the protein sequences shown. The exact form of at least one protein or probe is not confirmed. A weaker result is weaker than the reference pair of the same experiment. At least one verdict was read from the data and is not stated in words by the source.
